The list shows a part of the results.
Key:
Assay in all cases: log2 fold change, soluble protein after heating vs DMSO (PISA); higher = thermal stabilisation; K562 cells, 10 uM, 30 min; active = over 0.2 and 3.5 SD of the protein, either way, in both replicates (recomputed)
[1] = compound: CC1=C(C=C(C=C1)NC(=O)C2=CC(=CC=C2)C(C)(C)C#N)NC3=CC4=C(C=C3)N=CN(C4=O)C
Summary of the method: (§1)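 K562 cells at 2×10^6 cells/mL were given 10 μM compound for 30 min. Aliquots then went through 3 min of heating across 48°C-58°C, were pooled, and were extracted in PBS with 0.5% NP-40 at 4°C, and the supernatant after 21,000xg for 90 min was quantified by TMTpro 16plex LC-MS/MS with channel sums equalised. Thermal stability relative to control samples, from duplicates, is given as log2 fold change.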

The chains behind the UniProt entries cited, without tags or fusion partners. Where a name states a change or a piece, a line headed by the entry shows the natural chain unless it says otherwise.
UniProt Q9BPX6: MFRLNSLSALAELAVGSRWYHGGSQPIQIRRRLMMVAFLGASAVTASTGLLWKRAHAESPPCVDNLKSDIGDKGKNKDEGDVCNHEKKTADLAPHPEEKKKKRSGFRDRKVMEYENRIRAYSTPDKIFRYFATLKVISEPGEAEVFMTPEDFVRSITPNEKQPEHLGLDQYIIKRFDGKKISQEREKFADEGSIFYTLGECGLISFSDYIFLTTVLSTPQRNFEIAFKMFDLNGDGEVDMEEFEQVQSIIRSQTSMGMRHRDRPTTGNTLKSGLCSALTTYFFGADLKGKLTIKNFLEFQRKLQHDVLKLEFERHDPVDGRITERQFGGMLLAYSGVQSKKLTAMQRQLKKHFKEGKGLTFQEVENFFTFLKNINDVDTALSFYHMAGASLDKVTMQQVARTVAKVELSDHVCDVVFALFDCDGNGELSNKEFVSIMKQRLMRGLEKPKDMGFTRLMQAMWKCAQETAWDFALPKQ
UniProt Q9BWT6: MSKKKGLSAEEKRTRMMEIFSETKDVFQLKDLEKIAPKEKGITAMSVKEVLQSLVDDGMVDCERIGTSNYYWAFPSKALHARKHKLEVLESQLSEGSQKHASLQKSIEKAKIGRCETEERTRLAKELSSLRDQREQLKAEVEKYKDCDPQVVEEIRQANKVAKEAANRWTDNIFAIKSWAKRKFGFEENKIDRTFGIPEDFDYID
UniProt O96007: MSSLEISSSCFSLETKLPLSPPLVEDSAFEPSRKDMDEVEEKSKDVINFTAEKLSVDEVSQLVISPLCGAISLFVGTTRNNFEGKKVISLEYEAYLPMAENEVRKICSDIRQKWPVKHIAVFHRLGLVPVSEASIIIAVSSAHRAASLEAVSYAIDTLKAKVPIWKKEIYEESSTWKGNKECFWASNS
UniProt O75352: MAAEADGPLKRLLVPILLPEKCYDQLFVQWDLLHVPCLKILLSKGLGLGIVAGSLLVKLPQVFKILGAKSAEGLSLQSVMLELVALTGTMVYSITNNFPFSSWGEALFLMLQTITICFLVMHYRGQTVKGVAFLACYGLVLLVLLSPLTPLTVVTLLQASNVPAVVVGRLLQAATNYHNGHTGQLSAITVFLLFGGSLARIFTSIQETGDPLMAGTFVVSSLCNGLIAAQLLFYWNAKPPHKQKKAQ
UniProt Q9NXC5: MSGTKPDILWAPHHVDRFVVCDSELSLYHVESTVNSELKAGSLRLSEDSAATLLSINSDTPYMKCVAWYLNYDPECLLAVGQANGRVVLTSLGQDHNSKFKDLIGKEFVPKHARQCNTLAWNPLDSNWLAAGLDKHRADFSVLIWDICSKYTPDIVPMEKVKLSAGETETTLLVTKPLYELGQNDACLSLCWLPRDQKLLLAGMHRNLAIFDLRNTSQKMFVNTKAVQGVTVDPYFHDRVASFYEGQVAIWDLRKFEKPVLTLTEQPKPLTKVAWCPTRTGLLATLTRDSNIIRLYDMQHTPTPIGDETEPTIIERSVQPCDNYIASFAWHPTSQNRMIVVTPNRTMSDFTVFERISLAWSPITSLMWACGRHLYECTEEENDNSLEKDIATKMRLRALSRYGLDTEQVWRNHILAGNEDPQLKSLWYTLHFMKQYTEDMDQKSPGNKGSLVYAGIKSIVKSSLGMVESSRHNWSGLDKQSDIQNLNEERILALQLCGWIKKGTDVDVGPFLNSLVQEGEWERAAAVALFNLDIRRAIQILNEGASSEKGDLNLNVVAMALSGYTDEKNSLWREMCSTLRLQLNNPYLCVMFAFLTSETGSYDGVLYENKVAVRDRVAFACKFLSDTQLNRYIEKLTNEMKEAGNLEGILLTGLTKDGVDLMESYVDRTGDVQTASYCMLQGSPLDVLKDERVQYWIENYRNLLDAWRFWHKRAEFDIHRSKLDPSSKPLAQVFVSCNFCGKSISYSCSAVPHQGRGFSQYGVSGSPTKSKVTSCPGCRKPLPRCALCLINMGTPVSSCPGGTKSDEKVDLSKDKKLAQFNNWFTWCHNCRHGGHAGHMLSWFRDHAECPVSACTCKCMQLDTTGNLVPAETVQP
UniProt Q13015: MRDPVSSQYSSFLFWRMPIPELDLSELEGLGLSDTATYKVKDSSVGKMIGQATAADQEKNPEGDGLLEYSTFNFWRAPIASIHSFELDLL
UniProt Q9HAP2: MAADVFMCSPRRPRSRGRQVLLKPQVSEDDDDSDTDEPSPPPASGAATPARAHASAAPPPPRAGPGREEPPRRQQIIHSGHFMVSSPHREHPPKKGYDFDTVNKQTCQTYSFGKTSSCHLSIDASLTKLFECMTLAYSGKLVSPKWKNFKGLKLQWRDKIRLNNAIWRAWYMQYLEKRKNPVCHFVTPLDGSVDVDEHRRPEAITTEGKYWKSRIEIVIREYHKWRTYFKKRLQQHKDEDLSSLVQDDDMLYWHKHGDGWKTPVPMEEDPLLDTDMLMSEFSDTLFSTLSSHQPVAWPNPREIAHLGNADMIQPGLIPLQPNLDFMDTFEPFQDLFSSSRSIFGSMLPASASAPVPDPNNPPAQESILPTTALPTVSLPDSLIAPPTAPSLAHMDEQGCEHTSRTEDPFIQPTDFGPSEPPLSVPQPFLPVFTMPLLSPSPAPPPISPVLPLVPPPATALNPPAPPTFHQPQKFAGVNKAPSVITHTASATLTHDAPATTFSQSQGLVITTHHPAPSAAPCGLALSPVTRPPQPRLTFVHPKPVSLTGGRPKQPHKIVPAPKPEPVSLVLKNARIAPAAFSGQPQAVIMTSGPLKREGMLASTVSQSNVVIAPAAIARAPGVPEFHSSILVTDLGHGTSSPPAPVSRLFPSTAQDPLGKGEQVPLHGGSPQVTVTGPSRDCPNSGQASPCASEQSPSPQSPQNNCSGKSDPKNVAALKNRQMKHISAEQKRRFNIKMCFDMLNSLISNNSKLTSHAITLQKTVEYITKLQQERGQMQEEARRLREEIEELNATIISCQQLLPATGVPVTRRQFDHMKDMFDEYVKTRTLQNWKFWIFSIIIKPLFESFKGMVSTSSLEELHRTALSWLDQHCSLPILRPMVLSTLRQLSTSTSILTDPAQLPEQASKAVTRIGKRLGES
UniProt Q14165: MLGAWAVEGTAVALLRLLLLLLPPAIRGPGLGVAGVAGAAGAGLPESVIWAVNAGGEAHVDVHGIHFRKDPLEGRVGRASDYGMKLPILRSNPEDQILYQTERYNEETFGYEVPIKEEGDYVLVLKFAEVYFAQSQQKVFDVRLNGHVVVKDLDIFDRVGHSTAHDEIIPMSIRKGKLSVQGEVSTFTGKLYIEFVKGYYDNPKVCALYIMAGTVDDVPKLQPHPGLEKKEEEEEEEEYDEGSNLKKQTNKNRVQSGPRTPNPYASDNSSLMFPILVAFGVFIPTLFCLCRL
UniProt Q9HC36: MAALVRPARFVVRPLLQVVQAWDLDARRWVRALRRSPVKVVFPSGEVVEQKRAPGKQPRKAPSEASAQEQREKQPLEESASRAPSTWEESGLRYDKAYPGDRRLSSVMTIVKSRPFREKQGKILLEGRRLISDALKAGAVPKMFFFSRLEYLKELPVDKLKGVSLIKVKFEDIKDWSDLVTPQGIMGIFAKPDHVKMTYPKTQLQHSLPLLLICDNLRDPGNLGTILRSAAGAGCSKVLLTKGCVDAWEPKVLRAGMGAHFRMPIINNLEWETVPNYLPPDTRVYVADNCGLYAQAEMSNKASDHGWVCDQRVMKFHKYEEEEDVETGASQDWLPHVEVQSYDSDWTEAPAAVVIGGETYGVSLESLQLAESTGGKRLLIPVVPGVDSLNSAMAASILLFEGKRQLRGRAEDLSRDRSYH
UniProt Q9NQG6: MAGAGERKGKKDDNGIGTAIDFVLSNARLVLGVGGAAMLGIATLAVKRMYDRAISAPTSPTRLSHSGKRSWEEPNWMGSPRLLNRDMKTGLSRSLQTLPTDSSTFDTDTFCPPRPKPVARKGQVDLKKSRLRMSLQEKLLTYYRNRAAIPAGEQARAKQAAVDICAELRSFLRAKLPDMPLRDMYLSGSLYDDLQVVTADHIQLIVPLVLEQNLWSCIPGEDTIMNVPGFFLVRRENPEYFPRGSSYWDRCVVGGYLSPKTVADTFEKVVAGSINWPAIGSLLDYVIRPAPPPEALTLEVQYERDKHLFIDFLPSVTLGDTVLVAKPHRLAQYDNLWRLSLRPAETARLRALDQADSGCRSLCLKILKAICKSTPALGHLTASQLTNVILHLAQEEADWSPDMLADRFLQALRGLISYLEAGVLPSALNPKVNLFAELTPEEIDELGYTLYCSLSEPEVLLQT
UniProt Q9UNW1: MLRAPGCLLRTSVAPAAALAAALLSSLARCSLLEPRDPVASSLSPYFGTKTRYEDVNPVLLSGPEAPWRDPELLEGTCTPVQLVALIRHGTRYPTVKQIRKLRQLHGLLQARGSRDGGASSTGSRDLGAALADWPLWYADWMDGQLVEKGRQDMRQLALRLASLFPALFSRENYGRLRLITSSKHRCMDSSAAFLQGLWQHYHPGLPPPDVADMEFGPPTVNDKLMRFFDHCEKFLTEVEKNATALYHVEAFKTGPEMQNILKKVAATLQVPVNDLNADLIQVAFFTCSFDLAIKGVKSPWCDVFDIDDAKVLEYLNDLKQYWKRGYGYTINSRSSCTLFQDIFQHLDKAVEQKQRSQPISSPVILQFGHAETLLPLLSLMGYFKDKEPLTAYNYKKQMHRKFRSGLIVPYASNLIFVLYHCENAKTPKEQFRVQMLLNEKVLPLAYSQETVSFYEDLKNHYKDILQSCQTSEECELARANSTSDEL
UniProt P25325: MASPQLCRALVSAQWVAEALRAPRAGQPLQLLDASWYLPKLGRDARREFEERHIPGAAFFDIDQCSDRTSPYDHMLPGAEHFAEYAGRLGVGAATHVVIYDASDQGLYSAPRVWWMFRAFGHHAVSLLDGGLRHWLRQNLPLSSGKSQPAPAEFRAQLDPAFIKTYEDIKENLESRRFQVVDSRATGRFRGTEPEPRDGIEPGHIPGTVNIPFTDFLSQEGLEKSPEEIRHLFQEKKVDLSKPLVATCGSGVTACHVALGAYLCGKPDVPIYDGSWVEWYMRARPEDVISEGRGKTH
UniProt Q6IN84: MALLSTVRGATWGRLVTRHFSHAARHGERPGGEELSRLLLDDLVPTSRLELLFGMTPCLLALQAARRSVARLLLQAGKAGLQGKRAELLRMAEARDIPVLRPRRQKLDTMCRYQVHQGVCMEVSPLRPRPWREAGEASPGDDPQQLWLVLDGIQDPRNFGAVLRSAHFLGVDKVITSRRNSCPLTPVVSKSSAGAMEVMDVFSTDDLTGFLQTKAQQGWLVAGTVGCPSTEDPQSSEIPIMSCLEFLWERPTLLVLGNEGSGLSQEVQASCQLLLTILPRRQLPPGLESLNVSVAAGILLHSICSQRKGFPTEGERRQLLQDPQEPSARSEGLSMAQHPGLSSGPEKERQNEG
UniProt Q9UBU8, whole entry, looked up: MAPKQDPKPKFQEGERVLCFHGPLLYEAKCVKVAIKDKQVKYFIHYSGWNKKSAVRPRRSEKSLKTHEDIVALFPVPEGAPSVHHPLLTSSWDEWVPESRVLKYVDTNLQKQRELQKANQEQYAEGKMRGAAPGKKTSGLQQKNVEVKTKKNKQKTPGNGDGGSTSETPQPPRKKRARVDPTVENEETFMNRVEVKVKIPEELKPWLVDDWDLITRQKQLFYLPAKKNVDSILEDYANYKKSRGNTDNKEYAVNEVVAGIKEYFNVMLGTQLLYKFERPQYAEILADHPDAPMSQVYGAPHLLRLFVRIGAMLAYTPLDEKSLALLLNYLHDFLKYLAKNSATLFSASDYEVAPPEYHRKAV
UniProt Q9NZB8: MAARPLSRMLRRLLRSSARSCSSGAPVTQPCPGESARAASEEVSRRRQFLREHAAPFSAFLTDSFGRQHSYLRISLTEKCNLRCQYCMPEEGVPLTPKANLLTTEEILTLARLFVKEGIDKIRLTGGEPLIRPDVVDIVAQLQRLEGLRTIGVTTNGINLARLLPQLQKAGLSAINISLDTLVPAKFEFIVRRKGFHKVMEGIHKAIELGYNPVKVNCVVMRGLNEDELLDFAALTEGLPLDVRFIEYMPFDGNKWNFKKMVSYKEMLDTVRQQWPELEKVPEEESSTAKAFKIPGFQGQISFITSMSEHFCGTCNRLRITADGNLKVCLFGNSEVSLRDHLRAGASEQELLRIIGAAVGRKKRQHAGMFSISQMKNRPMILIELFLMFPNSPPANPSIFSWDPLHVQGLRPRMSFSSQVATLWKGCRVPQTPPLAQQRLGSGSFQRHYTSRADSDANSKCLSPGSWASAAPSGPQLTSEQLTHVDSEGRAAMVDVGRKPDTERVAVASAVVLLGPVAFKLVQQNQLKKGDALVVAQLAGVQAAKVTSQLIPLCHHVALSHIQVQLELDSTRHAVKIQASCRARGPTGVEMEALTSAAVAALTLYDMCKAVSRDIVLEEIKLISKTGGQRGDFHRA
UniProt Q15014, whole entry, looked up: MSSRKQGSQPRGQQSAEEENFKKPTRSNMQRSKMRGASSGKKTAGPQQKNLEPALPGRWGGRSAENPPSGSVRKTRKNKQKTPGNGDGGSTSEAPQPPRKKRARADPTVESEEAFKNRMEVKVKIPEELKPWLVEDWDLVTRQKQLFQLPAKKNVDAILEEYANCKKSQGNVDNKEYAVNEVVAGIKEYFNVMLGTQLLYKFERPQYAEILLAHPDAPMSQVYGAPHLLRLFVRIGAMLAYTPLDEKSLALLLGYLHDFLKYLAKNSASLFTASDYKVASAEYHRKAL

[2] = compound: CC1=C(C=C(C=C1)NC(=O)C2=CC(=CC=C2)N(C)C)NC(=O)C3=CC=C(C=C3)O
Summary of the method: as §1

[3] = compound: CC1=CC=C(C=C1)SC2=C3C=C(SC3=CN=C2)C(=O)N
Summary of the method: as §1

[4] = compound: CC1=NC(=CC=C1)C2=C(N=C(N2)C(C)(C)C)C3=CC4=NC=CN=C4C=C3
Summary of the method: as §1

[5] = compound: CCCCN(Cc1ccc(C(=O)NO)cc1)C(=O)Nc1ccccc1 [Nexturastat A]
Summary of the method: as §1

[6] = compound: CCCS(=O)(=O)Nc1ccc(F)c(C(=O)c2c[nH]c3ncc(-c4ccc(Cl)cc4)cc23)c1F [vemurafenib]
Summary of the method: as §1

[7] = compound: CCCS(=O)(=O)Nc1ccc(F)c(C(=O)c2c[nH]c3ncc(Cl)cc23)c1F
Summary of the method: as §1

[8] = compound: CCCc1cc(C)[nH]c(=O)c1CNC(=O)c1cc(-c2ccnc(N3CCN(C)CC3)c2)cc2c1cnn2C(C)C
Summary of the method: as §1

[9] = compound: CCN(CC)Cc1ccc2cc(COC(=O)Nc3ccc(C(=O)NO)cc3)ccc2c1 [givinostat]
Summary of the method: as §1

[10] = compound: CCN(CCCOc1ccc2c(Nc3cc(CC(=O)Nc4cccc(F)c4)[nH]n3)ncnc2c1)CCOP(=O)(O)O [barasertib]
Summary of the method: as §1

Measured: log2 fold change

MRPL10 isoform 2 (UniProt Q7Z7H8)
inactive: [1] 0.105 | [2] -0.046 | [3] -0.074 | [4] -0.025 | [5] 0.116 | [6] -0.091 | [7] 0.016 | [8] -0.152 | [9] -0.089 | [10] -0.024

MRPL48 (UniProt Q96GC5)
inactive: [1] -0.016 | [2] -0.017 | [3] -0.03 | [4] -0.034 | [5] 0.102 | [6] -0.092 | [7] -0.082 | [8] 0.046 | [9] 0.014 | [10] -0.052

MICU1 isoform 3 (UniProt Q9BPX6)
inactive: [1] -0.002 | [2] 0.052 | [3] -0.003 | [4] -0.028 | [5] 0.117 | [6] -0.049 | [7] 0.042 | [8] -0.001 | [9] 0 | [10] 0.012

MND1 (UniProt Q9BWT6)
inactive: [1] 0.034 | [2] 0.021 | [3] 0 | [4] 0.025 | [5] -0.043 | [6] -0.016 | [7] -0.024 | [8] -0.091 | [9] 0.048 | [10] -0.032

MOCS2 (UniProt O96007)
inactive: [1] -0.001 | [2] -0.013 | [3] 0.001 | [4] 0.003 | [5] -0.007 | [6] 0.033 | [7] -0.02 | [8] -0.034 | [9] -0.005 | [10] 0.016

MPDU1 (UniProt O75352)
inactive: [1] 0.024 | [2] 0.006 | [3] 0.091 | [4] -0.189 | [5] -0.014 | [6] 0.01 | [7] 0 | [8] -0.12 | [9] 0.072 | [10] 0.019

MIOS (UniProt Q9NXC5)
inactive: [1] 0.031 | [2] 0.016 | [3] -0.021 | [4] -0.044 | [5] 0.132 | [6] -0.024 | [7] -0.021 | [8] -0.014 | [9] 0.008 | [10] 0

MRPL46 (UniProt Q9H2W6)
inactive: [1] 0.061 | [2] -0.044 | [3] -0.009 | [4] -0.064 | [5] 0.076 | [6] -0.061 | [7] -0.006 | [8] 0.009 | [9] -0.003 | [10] -0.008

MRPL4 (UniProt Q9BYD3)
inactive: [1] 0.069 | [2] -0.044 | [3] 0.002 | [4] -0.06 | [5] 0.096 | [6] -0.082 | [7] -0.021 | [8] 0.012 | [9] -0.099 | [10] -0.136

MLLT11 (UniProt Q13015)
inactive: [1] -0.034 | [2] 0.026 | [3] -0.01 | [4] -0.05 | [5] -0.019 | [6] 0.34 | [7] 0.145 | [8] 0.144 | [9] 0.043 | [10] 0.074

MRPL38 (UniProt Q96DV4)
inactive: [1] 0.085 | [2] -0.042 | [3] -0.073 | [4] -0.007 | [5] 0.126 | [6] -0.073 | [7] -0.052 | [8] 0.065 | [9] 0.038 | [10] -0.029

MRPL23 (UniProt Q16540)
inactive: [1] 0.054 | [2] -0.003 | [3] -0.044 | [4] -0.066 | [5] 0.204 | [6] -0.135 | [7] -0.1 | [8] 0.109 | [9] 0.021 | [10] -0.09

MLXIP (UniProt Q9HAP2)
inactive: [1] 0.017 | [2] -0.044 | [3] 0.108 | [4] 0.061 | [5] -0.066 | [6] 0.085 | [7] 0.094 | [8] 0.154 | [9] -0.171 | [10] -0.042

MLEC (UniProt Q14165)
inactive: [1] 0 | [2] -0.001 | [3] -0.03 | [4] -0.026 | [5] 0.031 | [6] 0 | [7] -0.017 | [8] -0.07 | [9] 0.003 | [10] -0.019

MRM3 (UniProt Q9HC36)
inactive: [1] -0.034 | [2] 0.111 | [3] 0.022 | [4] -0.114 | [5] 0.304 | [6] -0.141 | [7] -0.078 | [8] 0.071 | [9] 0.092 | [10] -0.111

MIEF1 (UniProt Q9NQG6)
inactive: [1] 0.054 | [2] 0.009 | [3] 0.023 | [4] 0.13 | [5] -0.067 | [6] -0.02 | [7] 0.019 | [8] 0.008 | [9] -0.044 | [10] 0.015

MRPL37 (UniProt Q9BZE1)
inactive: [1] 0.026 | [2] -0.047 | [3] -0.059 | [4] -0.02 | [5] 0.063 | [6] -0.096 | [7] -0.024 | [8] -0.015 | [9] 0.042 | [10] -0.079

MINPP1 (UniProt Q9UNW1)
inactive: [1] -0.021 | [2] -0.002 | [3] 0.045 | [4] 0.023 | [5] -0.073 | [6] -0.022 | [7] 0.031 | [8] 0.035 | [9] -0.055 | [10] -0.024

MPST isoform 2 (UniProt P25325)
inactive: [1] 0.058 | [2] -0.072 | [3] 0.069 | [4] 0.026 | [5] -0.075 | [6] 0.07 | [7] 0.066 | [8] 0.126 | [9] -0.008 | [10] 0.049

MRPL49 (UniProt Q13405)
inactive: [1] -0.003 | [2] -0.102 | [3] -0.104 | [4] -0.08 | [5] 0.173 | [6] 0.014 | [7] -0.103 | [8] -0.023 | [9] -0.075 | [10] 0.003

MRM1 (UniProt Q6IN84)
inactive: [1] 0.119 | [2] 0.043 | [3] -0.002 | [4] -0.071 | [5] 0.198 | [6] -0.065 | [7] -0.106 | [8] 0.073 | [9] -0.011 | [10] -0.048

MRPL44 (UniProt Q9H9J2)
inactive: [1] 0.059 | [2] -0.048 | [3] -0.029 | [4] -0.047 | [5] 0.192 | [6] -0.077 | [7] -0.039 | [8] 0.091 | [9] 0.04 | [10] -0.043

MRPL17 (UniProt Q9NRX2)
inactive: [1] 0.027 | [2] -0.007 | [3] -0.087 | [4] -0.026 | [5] 0.126 | [6] -0.08 | [7] -0.054 | [8] 0.049 | [9] -0.003 | [10] -0.051

Copied from the listing (two entries):
MPST isoform 2 (UniProt P25325)
inactive: [1] 0.058 | [2] -0.072 | [3] 0.069 | [4] 0.026 | [5] -0.075 | [6] 0.07 | [7] 0.066 | [8] 0.126 | [9] -0.008 | [10] 0.049

MRPL49 (UniProt Q13405)
inactive: [1] -0.003 | [2] -0.102 | [3] -0.104 | [4] -0.08 | [5] 0.173 | [6] 0.014 | [7] -0.103 | [8] -0.023 | [9] -0.075 | [10] 0.003

(list continues)

MORF4L1 isoform 2 (UniProt Q9UBU8)
inactive: [1] -0.054 | [2] -0.025 | [3] 0 | [4] 0 | [5] 0.185 | [6] -0.004 | [7] 0.01 | [8] -0.037 | [9] -0.021 | [10] -0.02

MRPL15 (UniProt Q9P015)
inactive: [1] 0.074 | [2] -0.045 | [3] -0.134 | [4] -0.052 | [5] 0.132 | [6] -0.063 | [7] -0.062 | [8] 0.023 | [9] 0.062 | [10] -0.044

MOCS1 isoform 8 (UniProt Q9NZB8)
inactive: [1] -0.051 | [2] 0.013 | [3] 0.026 | [4] -0.009 | [5] -0.082 | [6] 0.022 | [7] -0.024 | [8] 0.125 | [9] -0.036 | [10] -0.013

MORF4L2 (UniProt Q15014)
inactive: [1] -0.004 | [2] -0.061 | [3] -0.015 | [4] -0.083 | [5] 0.129 | [6] 0.009 | [7] 0.036 | [8] 0.038 | [9] -0.007 | [10] -0.03

MRPL35 (UniProt Q9NZE8)
inactive: [1] -0.002 | [2] -0.121 | [3] -0.065 | [4] -0.087 | [5] 0.189 | [6] -0.041 | [7] -0.074 | [8] 0.02 | [9] -0.066 | [10] -0.053

— the supplement of paper PMC10849652
